Assay results: PubChem BioAssay AID186 (DTP/NCI, 2004)
Shown are survivors of the treated group in tumour-free mice. Survivors were counted at the toxicity check, usually on the fifth day, unless a day is given; later deaths do not show. Schedules are NCI's codes, read here as Q, the interval in days (D) or hours (H), X, the number of doses. Some entries hold several experiments; their values stand side by side, smallest first.

Test system: B6D2F1 mice, nontumored toxicity test, survival
Test: NCI In Vivo Anticancer Drug Screen. Data for tumor model Nontumored Animals (Toxicity Test) in B6D2F1 (BDF1) mice
Conditions: vehicle: Klucel (hydroxypropylcellulose) (HPC)

Cc1cc(NCCCCCCNc2cc(C)nc3ccc(N)cc23)c2cc(N)ccc2n1
survivor count (dose: 4.0 mg/kg/injection, schedule: Q01DX009 (ip)): 8 of 8 | survivor count (dose: 4.0 mg/kg/injection, schedule: Q03HX016 (ip)): 8 of 8 | survivor count (dose: 4.0 mg/kg/injection, schedule: Q03HX024 (ip)): 8 of 8 | survivor count (dose: 8.0 mg/kg/injection, schedule: Q01DX009 (ip)): 8 of 8 | survivor count (dose: 8.0 mg/kg/injection, schedule: Q01DX009 (sc)): 8 of 8 | survivor count (dose: 8.0 mg/kg/injection, schedule: Q03HX008 (ip)): 8 of 8 | survivor count (dose: 8.0 mg/kg/injection, schedule: Q03HX016 (ip)): 8 of 8 | survivor count (dose: 8.0 mg/kg/injection, schedule: Q03HX024 (ip)): 8 of 8 | survivor count (dose: 16.0 mg/kg/injection, schedule: Q01DX009 (ip)): 7 of 7 and 8 of 8 | survivor count (dose: 16.0 mg/kg/injection, schedule: Q01DX009 (sc)): 8 of 8 | survivor count (dose: 16.0 mg/kg/injection, schedule: Q03HX008 (ip)): 8 of 8 | survivor count (dose: 16.0 mg/kg/injection, schedule: Q03HX016 (ip)): 8 of 8 | survivor count (dose: 16.0 mg/kg/injection, schedule: Q03HX024 (ip)): 8 of 8 | survivor count (dose: 32.0 mg/kg/injection, schedule: Q01DX009 (ip)): 8 of 8 | survivor count (dose: 32.0 mg/kg/injection, schedule: Q01DX009 (oral)): 8 of 8 | survivor count (dose: 32.0 mg/kg/injection, schedule: Q01DX009 (sc)): 8 of 8 | survivor count (dose: 32.0 mg/kg/injection, schedule: Q03HX008 (ip)): 8 of 8 | survivor count (dose: 32.0 mg/kg/injection, schedule: Q03HX016 (ip)): 8 of 8 | survivor count (dose: 32.0 mg/kg/injection, schedule: Q03HX024 (ip)): 8 of 8 | survivor count (dose: 32.0 mg/kg/injection, schedule: Q04DX003 (ip)): 8 of 8 | survivor count (dose: 32.0 mg/kg/injection, schedule: Q08DX002 (ip)): 8 of 8 | survivor count (dose: 64.0 mg/kg/injection, schedule: Q01DX001 (ip)): 8 of 8 | survivor count (dose: 64.0 mg/kg/injection, schedule: Q01DX009 (ip)): 8 of 8 | survivor count (dose: 64.0 mg/kg/injection, schedule: Q01DX009 (oral)): 8 of 8 | survivor count (dose: 64.0 mg/kg/injection, schedule: Q01DX009 (sc)): 8 of 8 | survivor count (dose: 64.0 mg/kg/injection, schedule: Q03HX008 (ip)): 8 of 8 | survivor count (dose: 64.0 mg/kg/injection, schedule: Q03HX016 (ip)): 8 of 8 | survivor count (dose: 64.0 mg/kg/injection, schedule: Q03HX024 (ip)): 8 of 8 | survivor count (dose: 64.0 mg/kg/injection, schedule: Q04DX003 (ip)): 8 of 8 | survivor count (dose: 64.0 mg/kg/injection, schedule: Q04DX003 (sc)): 8 of 8 | survivor count (dose: 64.0 mg/kg/injection, schedule: Q08DX002 (ip)): 8 of 8 | survivor count (dose: 128.0 mg/kg/injection, schedule: Q01DX001 (ip)): 8 of 8 | survivor count (dose: 128.0 mg/kg/injection, schedule: Q01DX009 (ip)): 7 of 8 and 8 of 8 | survivor count (dose: 128.0 mg/kg/injection, schedule: Q01DX009 (oral)): 8 of 8 | survivor count (dose: 128.0 mg/kg/injection, schedule: Q01DX009 (sc)): 8 of 8 | survivor count (dose: 128.0 mg/kg/injection, schedule: Q03HX008 (ip)): 8 of 8 | survivor count (dose: 128.0 mg/kg/injection, schedule: Q03HX016 (ip)): 8 of 8 | survivor count (dose: 128.0 mg/kg/injection, schedule: Q03HX024 (ip)): 8 of 8 | survivor count (dose: 128.0 mg/kg/injection, schedule: Q04DX003 (ip)): 8 of 8 | survivor count (dose: 128.0 mg/kg/injection, schedule: Q04DX003 (sc)): 8 of 8 | survivor count (dose: 128.0 mg/kg/injection, schedule: Q08DX002 (ip)): 8 of 8 | survivor count (dose: 256.0 mg/kg/injection, schedule: Q01DX001 (ip)): 8 of 8 | survivor count (dose: 256.0 mg/kg/injection, schedule: Q01DX009 (ip)): 3 of 8 | survivor count (dose: 256.0 mg/kg/injection, schedule: Q01DX009 (oral)): 8 of 8 | survivor count (dose: 256.0 mg/kg/injection, schedule: Q01DX009 (sc)): 8 of 8 | survivor count (dose: 256.0 mg/kg/injection, schedule: Q04DX003 (ip)): 8 of 8 | survivor count (dose: 256.0 mg/kg/injection, schedule: Q04DX003 (oral)): 8 of 8 | survivor count (dose: 256.0 mg/kg/injection, schedule: Q04DX003 (sc)): 8 of 8 | survivor count (dose: 256.0 mg/kg/injection, schedule: Q08DX002 (ip)): 8 of 8 | survivor count (dose: 512.0 mg/kg/injection, schedule: Q01DX001 (ip)): 8 of 8 | survivor count (dose: 512.0 mg/kg/injection, schedule: Q01DX009 (oral)): 8 of 8 | survivor count (dose: 512.0 mg/kg/injection, schedule: Q04DX003 (ip)): 8 of 8 | survivor count (dose: 512.0 mg/kg/injection, schedule: Q04DX003 (oral)): 8 of 8 | survivor count (dose: 512.0 mg/kg/injection, schedule: Q04DX003 (sc)): 8 of 8 | survivor count (dose: 512.0 mg/kg/injection, schedule: Q08DX002 (ip)): 8 of 8 | survivor count (dose: 1024.0 mg/kg/injection, schedule: Q01DX001 (ip)): 8 of 8 | survivor count (dose: 1024.0 mg/kg/injection, schedule: Q01DX009 (oral)): 8 of 8 | survivor count (dose: 1024.0 mg/kg/injection, schedule: Q04DX003 (ip)): 8 of 8 | survivor count (dose: 1024.0 mg/kg/injection, schedule: Q04DX003 (oral)): 8 of 8 | survivor count (dose: 1024.0 mg/kg/injection, schedule: Q04DX003 (sc)): 8 of 8 | survivor count (dose: 1024.0 mg/kg/injection, schedule: Q08DX002 (ip)): 8 of 8 | survivor count (dose: 2048.0 mg/kg/injection, schedule: Q04DX003 (oral)): 8 of 8
